This is an account of results in doi:10.1101/2021.04.18.440256.

What all share (test): co-IP
Assay [1] has as its target T1, HA-tagged DCST1 (Dcst1-3xHA transgene, mouse) (mouse) (UniProt Q059Y8).
T1 sequence: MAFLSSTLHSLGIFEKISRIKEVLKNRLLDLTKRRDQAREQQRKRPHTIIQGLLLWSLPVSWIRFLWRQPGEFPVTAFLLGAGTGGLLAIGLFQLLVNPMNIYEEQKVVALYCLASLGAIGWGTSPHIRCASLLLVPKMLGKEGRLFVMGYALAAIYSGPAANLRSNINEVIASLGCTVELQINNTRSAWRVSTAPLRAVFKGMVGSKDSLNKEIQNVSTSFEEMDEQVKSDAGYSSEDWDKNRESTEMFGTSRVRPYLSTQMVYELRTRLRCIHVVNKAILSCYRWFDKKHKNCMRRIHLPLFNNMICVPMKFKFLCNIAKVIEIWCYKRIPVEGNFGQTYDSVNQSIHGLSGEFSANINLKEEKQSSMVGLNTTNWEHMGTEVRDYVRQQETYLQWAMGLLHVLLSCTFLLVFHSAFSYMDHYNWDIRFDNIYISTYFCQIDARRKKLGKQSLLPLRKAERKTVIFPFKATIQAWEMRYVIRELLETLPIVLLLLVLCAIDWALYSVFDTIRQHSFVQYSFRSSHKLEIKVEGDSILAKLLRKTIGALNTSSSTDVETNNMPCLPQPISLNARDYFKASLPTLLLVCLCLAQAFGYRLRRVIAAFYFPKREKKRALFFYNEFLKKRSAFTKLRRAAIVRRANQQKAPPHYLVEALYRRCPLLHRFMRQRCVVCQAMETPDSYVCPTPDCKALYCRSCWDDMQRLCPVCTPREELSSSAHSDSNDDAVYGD

For assay [2], the target named is HA-tagged DCST2 (Dcst2-3xHA transgene, mouse) (mouse).
The target is the same in assay [3]. The source holds these as a separate data set.
In assay [4] the target is HA-tagged DCST2 (mouse Dcst2 ORF-3xHA) (mouse).

Where two headings read alike, the source gives them in different places. These are yes or no findings as the source states them, for the method shown. Binding seen in cells or lysates may run through a third protein. Some results given as binding are weak or reduced against the parent protein; the word gives no strength. For some of these results: Tags and fused reporters may be left off the sequences shown.

B1: IZUMO1 (protein, UniProt Q9D9J7 22-397)
chain: CIKCDQFVTDALKTFENTYLNDHLPHDIHKNVMRMVNHEVSSFGVVTSAEDSYLGAVDENTLEQATWSFLKDLKRITDSDLKGELFIKELLWMLRHQKDIFNNLARQFQKEVLCPNKCGVMSQTLIWCLKCEKQLHICRKSLDCGERHIEVHRSEDLVLDCLLSWHRASKGLTDYSFYRVWENSSETLIAKGKEPYLTKSMVGPEDAGNYRCVLDTINQGHATVIRYDVTVLPPKHSEENQPPNIITQEEHETPVHVTPQTPPGQEPESELYPELHPELYPELIPTVAQNPEKKMKTRLLILLTLGFVVLVASIIISVLHFRKVSAKLKNASDEVKPTASGSKSDQSLSQQMGLKKASQADFNSDYSGDKSEATEN
On to B1, for which the binding entry in assay [1], in assay [2] and in assay [3] was “no binding” throughout.

B2: FLAG-tagged DCST1 (mouse Dcst1 ORF-3xFLAG) (protein, UniProt Q059Y8 1-732)
chain: T1 sequence
For B2, the binding entry in assay [4] is on record as “binds”.
